Values of other authors, collected in patent US20250332178A1, “METHODS OF TREATING MYCOBACTERIAL INFECTIONS USING TETRACYCLINE COMPOUNDS” (priority 2018, published 2025).
At least one compound was matched to its structure with a doubt left.

Tested on: M. abscessus
Settings: strains of M. abscessus; Wallace et al.; cited from earlier work

Structure (SMILES): CN(C)c1ccc(O)c2c1C[C@H]1C[C@H]3[C@H](N(C)C)C(O)=C(C(N)=O)C(=O)[C@@]3(O)C(O)=C1C2=O [minocycline]
- in vitro activity (in words): very low activity
